Reference: PMC4908583
These are yes or no findings as the source states them, for the method shown. Binding calls can cover weak binding; strength is not graded here.

Sequences of proteins named here, by UniProt entry; tags and fusion partners are left off. A change or cut given only in a name is not applied to a line headed by its entry.
UniProt Q9UMF0: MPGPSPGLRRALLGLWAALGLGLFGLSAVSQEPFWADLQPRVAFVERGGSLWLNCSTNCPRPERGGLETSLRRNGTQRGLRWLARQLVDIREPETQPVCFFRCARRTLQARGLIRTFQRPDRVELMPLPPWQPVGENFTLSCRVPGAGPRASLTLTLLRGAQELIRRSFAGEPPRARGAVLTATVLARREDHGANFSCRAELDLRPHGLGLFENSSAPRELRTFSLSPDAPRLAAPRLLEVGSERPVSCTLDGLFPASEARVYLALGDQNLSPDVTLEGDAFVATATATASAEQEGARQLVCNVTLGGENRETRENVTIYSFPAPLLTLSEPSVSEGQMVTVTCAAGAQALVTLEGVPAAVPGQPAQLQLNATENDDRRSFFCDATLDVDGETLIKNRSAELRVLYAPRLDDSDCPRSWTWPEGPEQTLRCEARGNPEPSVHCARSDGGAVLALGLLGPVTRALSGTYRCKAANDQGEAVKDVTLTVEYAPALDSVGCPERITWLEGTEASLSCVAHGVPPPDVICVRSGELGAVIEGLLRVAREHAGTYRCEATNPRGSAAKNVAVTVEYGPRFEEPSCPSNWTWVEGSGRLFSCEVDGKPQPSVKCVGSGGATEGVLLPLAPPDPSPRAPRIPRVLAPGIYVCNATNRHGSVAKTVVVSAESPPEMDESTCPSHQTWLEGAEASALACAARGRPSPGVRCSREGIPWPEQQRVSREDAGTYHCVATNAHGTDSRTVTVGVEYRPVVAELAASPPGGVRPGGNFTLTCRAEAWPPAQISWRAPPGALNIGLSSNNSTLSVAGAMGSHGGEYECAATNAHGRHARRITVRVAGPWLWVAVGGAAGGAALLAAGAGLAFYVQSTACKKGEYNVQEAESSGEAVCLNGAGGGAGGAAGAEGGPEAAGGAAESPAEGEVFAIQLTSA
UniProt Q9BRK3: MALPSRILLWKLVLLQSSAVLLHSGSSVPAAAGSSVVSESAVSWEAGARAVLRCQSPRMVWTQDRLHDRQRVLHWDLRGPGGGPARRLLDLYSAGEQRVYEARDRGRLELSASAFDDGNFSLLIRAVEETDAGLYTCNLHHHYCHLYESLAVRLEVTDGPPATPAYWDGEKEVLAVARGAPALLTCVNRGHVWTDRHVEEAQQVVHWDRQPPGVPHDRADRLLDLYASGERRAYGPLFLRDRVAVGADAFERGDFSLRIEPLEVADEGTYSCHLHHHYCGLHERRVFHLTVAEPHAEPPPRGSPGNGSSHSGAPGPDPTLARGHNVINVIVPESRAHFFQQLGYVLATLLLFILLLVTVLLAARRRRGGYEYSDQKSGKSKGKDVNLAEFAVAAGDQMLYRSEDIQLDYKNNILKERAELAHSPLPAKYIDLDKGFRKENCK

Target: T1, FPRL1 (formyl peptide receptor-like 1) inhibitory protein (FLIPr) (S. aureus) (UniProt Q2FZC0)
T1 sequence: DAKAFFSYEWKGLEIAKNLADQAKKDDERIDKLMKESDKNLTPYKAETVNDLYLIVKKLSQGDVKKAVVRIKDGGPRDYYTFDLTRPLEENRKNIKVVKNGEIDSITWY
Assay: peptide or protein array; both purified

Row | Substance | binding
1 | intercellular adhesion molecule 5 (ICAM5) (from UniProt Q9UMF0) | binds
2 | matrix remodelling associated protein 8 (MXRA8) (from UniProt Q9BRK3) | binds
